Results as given in article PMC5109244.
These are yes or no findings as the source states them, for the method shown. Some binding calls cover weakened binding; strength is not graded here. One block for each binder: values may come before it.

Assays:
[1] = target: T1, short mouse DNGR-1 ECD (extracellular domain of the short isoform of mouse DNGR-1) (mouse), Q8BRU4; test: reducing SDS-PAGE and Western blot; supernatants with FLAG-tagged ECD proteins diluted into 10 mM MES pH 6.1; 100 mM DTT in Laemmli buffer; anti-FLAG detection; reduction-resistant (type-2) dimers; settings: remark: other sources report otherwise
T1 chain: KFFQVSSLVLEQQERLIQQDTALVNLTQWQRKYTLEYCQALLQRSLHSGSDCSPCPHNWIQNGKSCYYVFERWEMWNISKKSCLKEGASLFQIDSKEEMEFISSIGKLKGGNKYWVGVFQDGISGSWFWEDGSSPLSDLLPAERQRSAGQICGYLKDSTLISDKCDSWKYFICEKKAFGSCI

[2] = target: short mouse DNGR-1 ECD (extracellular domain of the short isoform of mouse DNGR-1) (mouse) (UniProt Q8BRU4); test: condition: only with DTT or β-ME (reducing SDS-PAGE, neutral conditions); reducing SDS-PAGE and Western blot; supernatants with FLAG-tagged ECD proteins, neat or diluted into PBS (neutral conditions); reduced with DTT (100 mM) or β-ME in Laemmli buffer; anti-FLAG detection

binding [1]: binds
B1: short mouse DNGR-1 ECD (extracellular domain of the short isoform of mouse DNGR-1), Q8BRU4 57-238 (domain or fragment)
chain: T1 chain
modifications: here or on the partner: glycosylated (mobility augmented by PNGase F); glycosylated (mobility augmented by PNGase F)

binding [2]: no binding
B2: short mouse DNGR-1 ECD (extracellular domain of the short isoform of mouse DNGR-1) (domain or fragment, UniProt Q8BRU4 57-238)
chain: T1 chain
modifications: glycosylated (mobility augmented by PNGase F)
